Laboratory results reported in patent US9102588B2, “Fungicide N-cycloalkyl-N-bicyclic-carboxamide derivatives” (priority 2007, dated 2015).
Some results were stated once for a whole list of compounds, not compound by compound.

Experiments:
Sphaerotheca fuliginea = experiment: In vivo test on Sphaerotheca fuliginea (powdery mildew); conditions: 500 ppm; gherkin plants sprayed 24 hours before contamination; grading 12 days after contamination vs control plants
Puccinia recondita = experiment: In vivo test on Puccinia recondita (brown rust); conditions: 500 ppm; wheat plants sprayed 24 hours before contamination; grading 10 days after contamination vs control plants
[1] = test system: Mycosphaerella graminicola; experiment: In vivo test on Mycosphaerella graminicola (wheat leaf spot); conditions: 500 ppm; wheat plants sprayed 24 hours before contamination; grading 21 to 28 days after contamination vs control plants
Pyrenophora teres = experiment: In vivo test on Pyrenophora teres (barley net blotch); conditions: 500 ppm; barley plants sprayed 24 hours before contamination; grading 12 days after contamination vs control plants

COc1nn(C)cc1C(=O)N(C1CC1)C1CCC(C)(C)c2ccccc21 (stereo not drawn) [Example 72]
good (at least 70%) or total protection (% of efficacy) (Sphaerotheca fuliginea): at least 70%
good (at least 70%) or total protection (Puccinia recondita): at least 70%
good (at least 70%) or total protection (% of efficacy) [1]: at least 70%

COc1nn(C)cc1C(=O)N(C1CC1)C1CCc2c(C)cccc21 (stereo not drawn) [Example 58]
good (at least 70%) or total protection (% of efficacy) [1]: at least 70%

Cn1cc(C(=O)N(C2CC2)C2CCCc3cccc(Br)c32)c(C(F)F)n1 (stereo not drawn) [Example 106]
good (at least 70%) or total protection (% of efficacy) (Sphaerotheca fuliginea): at least 70%
good (at least 70%) or total protection (Puccinia recondita): at least 70%
good (at least 70%) or total protection (% of efficacy) [1]: at least 70%

COc1ccc2c(c1)C(N(C(=O)c1cn(C)nc1C(F)F)C1CC1)CCC2 (stereo not drawn) [Example 104]
good (at least 70%) or total protection (% of efficacy) (Sphaerotheca fuliginea): at least 70%
good (at least 70%) or total protection (Puccinia recondita): at least 70%

COc1nn(C)cc1C(=O)N(C1CC1)C1CCOc2ccccc21 (stereo not drawn) [Example 67]
good (at least 70%) or total protection (% of efficacy) (Sphaerotheca fuliginea): at least 70%

Cc1cc(C(=O)N(C2CC2)C2CCCc3ccc(Br)cc32)c(C)o1 (stereo not drawn) [Example 151]
good (at least 70%) or total protection (Puccinia recondita): at least 70%

COc1nn(C)cc1C(=O)N(C1CC1)C1CCc2ccccc21 (stereo not drawn) [Example 57]
good (at least 70%) or total protection (% of efficacy) (Sphaerotheca fuliginea): at least 70%
good (at least 70%) or total protection (% of efficacy) [1]: at least 70%

COc1nn(C)cc1C(=O)N(C1CC1)C1CC(C)(C)c2ccccc21 (stereo not drawn) [Example 71]
good (at least 70%) or total protection (% of efficacy) (Sphaerotheca fuliginea): at least 70%

Cn1cc(C(=O)N(C2CC2)C2CCCc3ccc(OCc4ccc(Cl)cc4Cl)cc32)c(C(F)F)n1 (stereo not drawn) [Example 102]
good (at least 70%) or total protection (% of efficacy) [1]: at least 70%

Cc1cccc2c1CCC2N(C(=O)c1cn(C)nc1C(F)(F)F)C1CC1 (stereo not drawn) [Example 134]
good (at least 70%) or total protection (% of efficacy) (Sphaerotheca fuliginea): at least 70%
good (at least 70%) or total protection (Pyrenophora teres): at least 70%
good (at least 70%) or total protection (% of efficacy) [1]: at least 70%

COc1nn(C)cc1C(=O)N(C1CC1)C1CCCc2ccc(Br)cc21 (stereo not drawn) [Example 64]
good (at least 70%) or total protection (% of efficacy) (Sphaerotheca fuliginea): at least 70%
good (at least 70%) or total protection (Pyrenophora teres): at least 70%

Cn1cc(C(=O)N(C2CC2)C2CCc3c(Cl)cc(Cl)cc32)c(C(F)(F)F)n1 (stereo not drawn) [Example 137]
good (at least 70%) or total protection (Pyrenophora teres): at least 70%
good (at least 70%) or total protection (% of efficacy) [1]: at least 70%

Cc1nn(C)c(F)c1C(=O)N(C1CC1)C1CCCc2ccc(OCc3ccc(Cl)cc3Cl)cc21 (stereo not drawn) [Example 32]
good (at least 70%) or total protection (Pyrenophora teres): at least 70%

Cn1cc(C(=O)N(C2CC2)C2CC(C)(C)c3ccccc32)c(C(F)(F)F)n1 (stereo not drawn) [Example 131]
good (at least 70%) or total protection (% of efficacy) (Sphaerotheca fuliginea): at least 70%
good (at least 70%) or total protection (% of efficacy) [1]: at least 70%

CCc1nn(C)cc1C(=O)N(C1CC1)C1CCCc2ccc(Br)cc21 (stereo not drawn) [Example 108]
good (at least 70%) or total protection (Puccinia recondita): at least 70%

Cn1cc(C(=O)N(C2CC2)C2CCCc3ccc(OCc4ccccc4)cc32)c(C(F)F)n1 (stereo not drawn) [Example 105]
good (at least 70%) or total protection (Pyrenophora teres): at least 70%
good (at least 70%) or total protection (% of efficacy) [1]: at least 70%

COc1nn(C)cc1C(=O)N(C1CC1)C1CCc2cc(Cl)ccc21 (stereo not drawn) [Example 63]
good (at least 70%) or total protection (Pyrenophora teres): at least 70%
good (at least 70%) or total protection (% of efficacy) [1]: at least 70%

Cn1cc(C(=O)N(C2CC2)C2CCSc3ccccc32)c(C(F)(F)F)n1 (stereo not drawn) [Example 144]
good (at least 70%) or total protection (% of efficacy) [1]: at least 70%

COc1ccc2c(c1)C(N(C(=O)c1cn(C)nc1C(F)F)C1CC1)CC2 (stereo not drawn) [Example 80]
good (at least 70%) or total protection (% of efficacy) (Sphaerotheca fuliginea): at least 70%
good (at least 70%) or total protection (Pyrenophora teres): at least 70%
good (at least 70%) or total protection (% of efficacy) [1]: at least 70%

Cc1nn(C)c(F)c1C(=O)N(C1CC1)C1CCCc2ccc(OCc3ccc(F)cc3F)cc21 (stereo not drawn) [Example 33]
good (at least 70%) or total protection (Puccinia recondita): at least 70%

COc1nn(C)cc1C(=O)N(C1CC1)C1CSCc2ccccc21 (stereo not drawn) [Example 69]
good (at least 70%) or total protection (Pyrenophora teres): at least 70%

Cn1cc(C(=O)N(C2CC2)C2CCCc3ccc(Br)cc32)c(C(F)F)n1 (stereo not drawn) [Example 88]
good (at least 70%) or total protection (Puccinia recondita): at least 70%
good (at least 70%) or total protection (% of efficacy) [1]: at least 70%

CCc1nn(C)cc1C(=O)N(C1CC1)C1CCc2cc(Cl)ccc21 (stereo not drawn) [Example 107]
good (at least 70%) or total protection (% of efficacy) [1]: at least 70%

Cn1cc(C(=O)N(C2CC2)C2CCCc3cccnc32)c(C(F)F)n1 (stereo not drawn) [Example 95]
good (at least 70%) or total protection (% of efficacy) (Sphaerotheca fuliginea): at least 70%
good (at least 70%) or total protection (Pyrenophora teres): at least 70%
good (at least 70%) or total protection (% of efficacy) [1]: at least 70%

Cn1cc(C(=O)N(C2CC2)C2CSCc3ccccc32)c(C(F)(F)F)n1 (stereo not drawn) [Example 145]
good (at least 70%) or total protection (% of efficacy) [1]: at least 70%

Cn1cc(C(=O)N(C2CC2)C2CCc3cc(Cl)ccc32)c(C(F)(F)F)n1 (stereo not drawn) [Example 139]
good (at least 70%) or total protection (Pyrenophora teres): at least 70%
good (at least 70%) or total protection (% of efficacy) [1]: at least 70%
